About 6,100 (1.1%) of roughly 580,000 compounds were called active. Inconclusive results, whose numbers are uncertain, are shown with a selection of clear calls. The call rests on the fitted dose curve; in most records, active means well fitted inhibition curve with a large enough effect; inconclusive means small, poorly fitted or top-dose-only effect, or another doubt; inactive means no such curve, though single readings can be large or run the other way. Potencies beside an inconclusive call are fits to weak or partial responses and may not hold up.
Molecular target: Polyunsaturated fatty acid lipoxygenase ALOX12 (Homo sapiens) (UniProt P18054)
Assay: Primary qHTS assay for inhibitors of human arachidonate 12S-lipoxygenase (ALOX12): Round 2
Conditions: purified 12hLO, xylenol orange hydroperoxide absorbance; activity change, negative = inhibition: at 108 µM (top of the series) unless noted
Outline: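 Purified human 12hLO (150 nM final) in 25 mM Hepes, 0.01% Triton X-100, pH 7.0 was preincubated 15 min at room temperature with compound. Then 40 uM arachidonic acid was added, 30 min. Hydroperoxide was read by Fe-XO absorbance ratio 573/405 nm.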
On the % scale 0 is the no-effect control and ±100 the full control effect; potency means the concentration at half of the fitted maximal effect.

Amino acid sequences for entries named in this document (tags omitted).
UniProt P18054, whole entry, looked up: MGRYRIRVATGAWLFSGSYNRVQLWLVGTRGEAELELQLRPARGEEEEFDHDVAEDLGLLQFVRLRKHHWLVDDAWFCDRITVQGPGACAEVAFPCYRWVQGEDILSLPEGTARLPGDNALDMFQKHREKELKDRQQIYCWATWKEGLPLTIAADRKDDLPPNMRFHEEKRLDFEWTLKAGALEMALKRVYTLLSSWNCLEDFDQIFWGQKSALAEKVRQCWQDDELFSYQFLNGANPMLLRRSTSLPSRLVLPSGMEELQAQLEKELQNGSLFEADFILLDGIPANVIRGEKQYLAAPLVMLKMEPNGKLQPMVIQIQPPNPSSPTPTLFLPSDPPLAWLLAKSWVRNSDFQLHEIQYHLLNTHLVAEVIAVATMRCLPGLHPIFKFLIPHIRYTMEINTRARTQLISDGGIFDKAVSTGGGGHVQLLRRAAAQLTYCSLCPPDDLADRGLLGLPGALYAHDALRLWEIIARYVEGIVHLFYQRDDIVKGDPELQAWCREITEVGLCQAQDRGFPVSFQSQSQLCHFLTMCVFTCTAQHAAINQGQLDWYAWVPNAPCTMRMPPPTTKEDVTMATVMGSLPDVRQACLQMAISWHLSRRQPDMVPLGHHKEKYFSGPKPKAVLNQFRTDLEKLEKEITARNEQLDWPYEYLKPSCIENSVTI

Row | SMILES | Potency | activity change, negative = inhibition
1 | O=C(c1ccc(-n2cnnn2)cc1)N(CCc1cccs1)Cc1cccs1 | inconclusive: 4.47 µM [inhibitor, full curve] | 
2 | CC(C)(C)C(=O)COC(=O)c1c(Cl)cccc1Cl | inconclusive: 44.7 µM [inhibitor, partial curve, poor fit] | 
3 | Cc1cccc(C)c1OCC(=O)OC/C(O)=C(\C#N)c1nc2ccccc2[nH]1 |  | inactive: -4.18%
4 | CC(C)COc1ccc(C(=O)Nc2cccc3ncccc23)cc1 | inconclusive: 39.8 µM [inhibitor, partial curve, poor fit] | 
5 | COc1ccc(Cl)cc1NC(=O)Cc1coc2c(C)c(C)ccc12 | inconclusive: 100 µM [inhibitor, partial curve, poor fit] | 
6 | CC(C)n1cc(CN2CCC(Oc3ccc(C(=O)N4CCCCC4)cc3)CC2)cn1 |  | inactive: -12.4%
7 | CCCC(=O)c1c[nH]c(C(=O)NCCCN2CCOCC2)c1 |  | inactive: 26.3%
8 | CC(CCc1ccccc1)NC(=O)CN1CCSc2ccccc21 (stereo unspecified) |  | inactive: -97.4%
9 | O=C(COC(=O)C1=COCCO1)Nc1ncc(Cl)cc1Cl | inconclusive: 0.282 µM [inhibitor, full curve, poor fit] | 
10 | N=c1n(CCO)c2ccccc2n1Cc1ccccc1F | inconclusive: 112 µM [inhibitor, single point] | 
11 | COc1ccc2nc(C)c3c(c2c1)OC(C(C)(Cl)Br)C3 (stereo unspecified) | inconclusive: 44.7 µM [inhibitor, partial curve, poor fit] | 
12 | O=C(CCSCCC(=O)NCc1ccccc1)NCc1ccccc1 |  | inactive: 10.2%
13 | CC(C)(C)c1cc(N)c(O)c(Cl)c1 | active: 17.8 µM | 
14 | N#CC1(NC(=O)COc2cccc(C(F)(F)F)c2)CCCCC1 |  | inactive: 8.12%
15 | CN(C)C(=S)SCc1cc(C(C)(C)C)c(O)c(C(C)(C)C)c1 | inconclusive: 31.6 µM [inhibitor, partial curve, poor fit] | 
16 | Cc1ccc(C)c(NC(=O)CN(C)C(=O)c2cccc(S(=O)(=O)N3CCCC3)c2)c1 |  | inactive: -2.78%
17 | CCOC(=O)c1c(CSc2ccccc2)n(C)c2cc(Br)c(OC)c(O)c12 |  | inactive: 8.78%
18 | CNC(=S)N1CCN(c2ccccc2OC)CC1 | inconclusive: 100 µM [inhibitor, partial curve, poor fit] | 
19 | COc1ccccc1OCC(=O)N/N=C/c1cccc2cccnc12 | inconclusive: 44.7 µM [inhibitor, single point] | 
20 | COc1ccc(C(=O)OCC(=O)Nc2ncc([N+](=O)[O-])s2)cc1OC | active: 35.5 µM | 
21 | Cc1cccc(NC(=O)c2nc3ccccc3nc2N2CCOCC2)c1 | inconclusive: 8.91 µM [inhibitor, partial curve, poor fit] | 
22 | Cc1nnc(N2C(=O)C(O)=C(C(=O)c3ccco3)C2c2ccc(C(C)C)cc2)s1 (stereo unspecified) | active: 44.7 µM | 
23 | Cn1cnc2c1c(=O)n(CC(=O)Nc1ccc(N3CCCCCC3)cc1)c(=O)n2C | inconclusive: 2.82 µM [inhibitor, full curve, poor fit] | 
24 | CN(C)CCCNc1oc(-c2cccs2)nc1C#N |  | inactive: 67.3%

Gathered by group, the entries above containing a furan ring, fused or not
Row | SMILES | Potency | activity change, negative = inhibition
5 | COc1ccc(Cl)cc1NC(=O)Cc1coc2c(C)c(C)ccc12 | inconclusive: 100 µM [inhibitor, partial curve, poor fit] | 
22 | Cc1nnc(N2C(=O)C(O)=C(C(=O)c3ccco3)C2c2ccc(C(C)C)cc2)s1 (stereo unspecified) | active: 44.7 µM | 

(listing goes on)

Row | SMILES | Potency | activity change, negative = inhibition
25 | CCOC(=O)CSc1nc2ccc(C)cc2[nH]1 | inconclusive: 56.2 µM [inhibitor, single point] | 
26 | CCNC(=O)C1(C)CCN(Cc2ccccc2C#N)C1 (stereo unspecified) |  | inactive: -6.02%
27 | Cc1ccc(C(C2=C(O)CC(C)(C)CC2=O)C2C(=O)CC(C)(C)CC2=O)o1 (stereo unspecified) | inconclusive: 25.1 µM [inhibitor, partial curve, poor fit] | 
28 | O=C(O)c1cc(-c2ccc[nH]2)nc2ccccc12 | inconclusive: 224 µM [inhibitor, partial curve, poor fit] | 
29 | CC(=O)CCc1oc2ccc(C)cc2c1-c1ccccc1 | inconclusive: 126 µM [inhibitor, single point] | 
30 | CCn1c(=O)cc(SCC(=O)Nc2cccc(SC)c2)c2ccccc21 |  | inactive: -3.51%
31 | Cc1c(NC2=C(Cl)C(=O)N(c3ccccc3Cl)C2=O)c(=O)n(-c2ccccc2)n1C | inconclusive: 15.8 µM [inhibitor, partial curve] | 
32 | O=C(Nc1sc2c(c1C(=O)O)CCCCC2)c1ccccc1 | inconclusive: 44.7 µM [inhibitor, partial curve, poor fit] | 
33 | CCC(=O)NC12CC3CC(CC(C3)C1)C2 | inconclusive: 3.16 µM [inhibitor, partial curve, poor fit] | 
34 | CCCCNC(=O)c1cccc(-n2cnc3cccnc32)c1C |  | inactive: -17%
35 | COc1ccc(/[N+]([O-])=C/c2ccoc2)cc1 | inconclusive: 15.8 µM [inhibitor, partial curve, poor fit] | 
36 | Cc1ncc([N+](=O)[O-])n1CCOC(=O)c1ccc(Br)cc1 | inconclusive: 141 µM [inhibitor, single point] | 
37 | C/C(=N\NC(=S)NC(C)C)c1ccc(Cl)c([N+](=O)[O-])c1 | inconclusive: 31.6 µM [inhibitor, partial curve, poor fit] | 
38 | CCn1c(=O)c([N+](=O)[O-])c(NCc2ccc3c(c2)OCO3)c2ccccc21 | inconclusive: 63.1 µM [inhibitor, partial curve, poor fit] | 
39 | COc1ccc(CC(=O)N/N=C(\C)c2cccnc2)cc1 | inconclusive: 4.47 µM [inhibitor, full curve, poor fit] | 
40 | CC1CCCCN1C(=O)c1ccc2c(c1)N(Cc1cccc(Cl)c1)C(=O)c1ccccc1S2=O (stereo unspecified) | inconclusive: 89.1 µM [inhibitor, partial curve, poor fit] | 
41 | CNC(=O)COC(=O)/C=C/c1c(C)nn(-c2ccccc2)c1C |  | inactive: -9.22%
42 | CCCCNC(=O)C1(C)CCCCN1C(=O)c1cc(OC)ccc1Br (stereo unspecified) |  | inactive: -0.883%
43 | Cc1ccc(OCCCCn2ccnc2)c([N+](=O)[O-])c1 |  | inactive: -8.02%
44 | COc1ccc(NC(=O)c2nc(C)n(-c3ccc(F)cc3)n2)c(OC)c1 |  | inactive: 13%
45 | O=C(CNC(=S)NC(=O)c1ccccc1)c1ccccc1 | inconclusive: 35.5 µM [inhibitor, full curve, poor fit] | 
46 | CCOC(=O)c1c(-c2ccc(C)s2)csc1N | inconclusive: 44.7 µM [inhibitor, partial curve, poor fit] | 
47 | CCCc1cc(=O)n2[nH]c(C)c(-c3ccc(OC)cc3)c2n1 | inconclusive: 31.6 µM [inhibitor, single point] | 
48 | O=C1C2CC=CCC2C(=O)N1c1ccc(NCCc2ccccc2)c([N+](=O)[O-])c1 (stereo unspecified) |  | inactive: -14%

Part of the list above, field by field.
COc1ccc(CC(=O)N/N=C(\C)c2cccnc2)cc1
  Potency: inconclusive: 4.47 µM [inhibitor, full curve, poor fit]
CC1CCCCN1C(=O)c1ccc2c(c1)N(Cc1cccc(Cl)c1)C(=O)c1ccccc1S2=O (stereo unspecified)
  Potency: inconclusive: 89.1 µM [inhibitor, partial curve, poor fit]
CNC(=O)COC(=O)/C=C/c1c(C)nn(-c2ccccc2)c1C
  activity change, negative = inhibition: inactive: -9.22%

(list continues)

Row | SMILES | Potency | activity change, negative = inhibition
49 | Cc1ccc(S(=O)(=O)c2c(C)cc(C)nc2Oc2cccc(C)c2C)cc1 |  | inactive: 4.47%
50 | Cc1noc(C)c1-c1cc(NCCN2CCOCC2)ncn1 | active: 39.8 µM | 
51 | Cc1cccc(NC(=O)c2cc(-c3ccc(C)o3)nc3ccccc23)n1 |  | inactive: -116%
52 | COc1ccc(CSC2=C(C#N)C(=O)NC3(CCCCC3)S2)cc1 | inconclusive: 44.7 µM [inhibitor, partial curve, poor fit] | 
53 | COc1ccc2c(c1)[C@@H](NS(C)(=O)=O)[C@H](C)[C@@H](C(C)C)N2 | inconclusive: 89.1 µM [inhibitor, partial curve, poor fit] | 
54 | COc1ccc(N/C=C2\C(=O)CCc3c2oc2cc(Cl)c(O)c(Cl)c32)cc1 | active: 6.31 µM | 
55 | O=C(Nc1ccc(C(=O)O)cc1)/C(=C\c1ccco1)NC(=O)c1ccc(Br)cc1 |  | inactive: -18.7%
56 | CCc1ccc(-n2nc3cc(C)c(NC(=O)c4ccccc4C)cc3n2)cc1 | inconclusive: 100 µM [inhibitor, partial curve, poor fit] | 
57 | C=CCNc1nc(-c2ccc3c(c2)OCCO3)cs1 | inconclusive: 10 µM [inhibitor, partial curve, poor fit] | 
58 | CC1CCCC(NC(=O)c2ccc(C#N)cc2)C1C (stereo unspecified) | inconclusive: 112 µM [inhibitor, single point] | 
59 | CCC(NC(=O)Nc1cc(Cl)ccc1OC)c1c(-n2cccc2)sc2c1CCN(C)C2 (stereo unspecified) | inconclusive: 50.1 µM [inhibitor, partial curve, poor fit] | 
60 | CCCCc1cc(C[C@H]2CNCC[C@H]2CC(=O)N(CC)CC)no1 |  | inactive: 15.8% [at 176 µM]
61 | CCOc1ccc2nc(N3C(=O)C(O)=C(C(=O)c4ccco4)C3c3ccco3)sc2c1 (stereo unspecified) | inconclusive: 31.6 µM [inhibitor, partial curve, poor fit] | 
62 | COc1ccc(Nc2nc(N)c(C(=O)c3ccc(Cl)cc3)s2)cc1 | inconclusive: 7.94 µM [inhibitor, partial curve, poor fit] | 
63 | COc1ccccc1COCC(O)CNCCc1ccc(C(F)(F)F)cc1 (stereo unspecified) | inconclusive: 0.631 µM [inhibitor, full curve, poor fit] | 
64 | Cn1ncc2c(C(=O)N3CCN(c4ncccn4)CC3)cc(-c3ccc(Cl)nc3)nc21 | inconclusive: 112 µM [inhibitor, partial curve, poor fit] | 
65 | CC(=O)NCCn1c(SCc2ccccc2F)nc2ccccc2c1=O |  | inactive: 0%
66 | CCN(Cc1ccccc1)C(=O)CSc1nncn1C | inconclusive: 39.8 µM [inhibitor, partial curve, poor fit] | 
67 | CCOc1ccc(NC(=S)NCc2ccc3c(c2)OCO3)cc1 | inconclusive: 79.4 µM [inhibitor, partial curve, poor fit] | 
68 | O=C(N/C(=C/c1ccco1)C(=O)N1CCCCCC1)c1cccs1 | inconclusive: 79.4 µM [inhibitor, partial curve, poor fit] | 
69 | O=C(Nc1cccnc1)OCc1ccccc1 |  | inconclusive: -30.6% [inhibitor]
70 | O=C(C1CCN(Cc2ccccc2)CC1)N1CCN(C/C=C/c2ccccc2)CC1 | inconclusive: 1.12 µM [inhibitor, full curve, poor fit] | 
71 | CCOc1ccc(NC(=O)CC2C(=O)N(c3ccc(C)cc3)C(=O)N2C2CCCCC2)cc1 (stereo unspecified) | inconclusive: 126 µM [inhibitor, partial curve, poor fit] | 

— PubChem BioAssay AID1671190 (National Center for Advancing Translational Sciences (NCATS), 2021)
